{"source": "PubChem BioAssay AID186", "about": "(DTP/NCI, 2004)", "tested_on": "B6D2F1 mice, nontumored toxicity test, survival", "assay": "NCI In Vivo Anticancer Drug Screen. Data for tumor model Nontumored Animals (Toxicity Test) in B6D2F1 (BDF1) mice", "details": "vehicle: water", "note": "The mice bore no tumour; each value counts animals alive of those treated. Counts of survivors are from the toxicity check (mostly the fifth day) where no day follows; animals may have died later. Schedule codes are those of the source, read here as Q, the interval in days (D) or hours (H), X, the number of doses. Some entries were tested several times; the values are given in rising order."}
{"smiles": "CNc1nc(N(C)C)nc(N(C)C)n1", "values": [{"measurement": "survivor count", "setting": "dose: 3.75 mg/kg/injection, schedule: Q03HX008 (ip)", "result": "10 of 10"}, {"measurement": "survivor count", "setting": "dose: 3.75 mg/kg/injection, schedule: Q08DX024 (ip)", "result": "10 of 10"}, {"measurement": "survivor count", "setting": "dose: 6.25 mg/kg/injection, schedule: Q04DX005 (iv)", "result": "10 of 10"}, {"measurement": "survivor count", "setting": "dose: 7.5 mg/kg/injection, schedule: Q01DX009 (ip)", "result": "10 of 10"}, {"measurement": "survivor count", "setting": "dose: 7.5 mg/kg/injection, schedule: Q01DX017 (ip)", "result": "10 of 10"}, {"measurement": "survivor count", "setting": "dose: 7.5 mg/kg/injection, schedule: Q01DX017 (sc)", "result": "10 of 10"}, {"measurement": "survivor count", "setting": "dose: 7.5 mg/kg/injection, schedule: Q03HX008 (ip)", "result": "10 of 10"}, {"measurement": "survivor count", "setting": "dose: 7.5 mg/kg/injection, schedule: Q08DX024 (ip)", "result": "10 of 10"}, {"measurement": "survivor count", "setting": "dose: 12.5 mg/kg/injection, schedule: Q04DX005 (ip)", "result": "10 of 10"}, {"measurement": "survivor count", "setting": "dose: 12.5 mg/kg/injection, schedule: Q04DX005 (iv)", "result": "10 of 10"}, {"measurement": "survivor count", "setting": "dose: 13.0 mg/kg/injection, schedule: Q01DX009 (ip)", "result": "10 of 10"}, {"measurement": "survivor count", "setting": "dose: 15.0 mg/kg/injection, schedule: Q01DX009 (ip)", "result": "10 of 10"}, {"measurement": "survivor count", "setting": "dose: 15.0 mg/kg/injection, schedule: Q01DX017 (ip)", "result": "10 of 10"}, {"measurement": "survivor count", "setting": "dose: 15.0 mg/kg/injection, schedule: Q01DX017 (oral)", "result": "10 of 10"}, {"measurement": "survivor count", "setting": "dose: 15.0 mg/kg/injection, schedule: Q01DX017 (sc)", "result": "10 of 10"}, {"measurement": "survivor count", "setting": "dose: 15.0 mg/kg/injection, schedule: Q03HX008 (ip)", "result": "10 of 10"}, {"measurement": "survivor count", "setting": "dose: 15.0 mg/kg/injection, schedule: Q08DX024 (ip)", "result": "10 of 10"}, {"measurement": "survivor count", "setting": "dose: 20.0 mg/kg/injection, schedule: Q01DX009 (ip)", "result": "10 of 10"}, {"measurement": "survivor count", "setting": "dose: 20.0 mg/kg/injection, schedule: Q04DX003 (ip)", "result": "10 of 10"}, {"measurement": "survivor count", "setting": "dose: 25.0 mg/kg/injection, schedule: Q01DX001 (ip)", "result": "10 of 10"}, {"measurement": "survivor count", "setting": "dose: 25.0 mg/kg/injection, schedule: Q01DX001 (oral)", "result": "10 of 10"}, {"measurement": "survivor count", "setting": "dose: 25.0 mg/kg/injection, schedule: Q04DX005 (ip)", "result": "10 of 10"}, {"measurement": "survivor count", "setting": "dose: 25.0 mg/kg/injection, schedule: Q04DX005 (iv)", "result": "10 of 10"}, {"measurement": "survivor count", "setting": "dose: 25.0 mg/kg/injection, schedule: Q08DX003 (ip)", "result": "10 of 10"}, {"measurement": "survivor count", "setting": "dose: 30.0 mg/kg/injection, schedule: Q01DX009 (ip)", "result": "9 of 10 and 10 of 10"}, {"measurement": "survivor count", "setting": "dose: 30.0 mg/kg/injection, schedule: Q01DX017 (ip)", "result": "10 of 10"}, {"measurement": "survivor count", "setting": "dose: 30.0 mg/kg/injection, schedule: Q01DX017 (oral)", "result": "10 of 10"}, {"measurement": "survivor count", "setting": "dose: 30.0 mg/kg/injection, schedule: Q01DX017 (sc)", "result": "10 of 10"}, {"measurement": "survivor count", "setting": "dose: 30.0 mg/kg/injection, schedule: Q03HX008 (ip)", "result": "10 of 10"}, {"measurement": "survivor count", "setting": "dose: 30.0 mg/kg/injection, schedule: Q04DX003 (ip)", "result": "10 of 10"}, {"measurement": "survivor count", "setting": "dose: 30.0 mg/kg/injection, schedule: Q08DX024 (ip)", "result": "10 of 10"}, {"measurement": "survivor count", "setting": "dose: 44.0 mg/kg/injection, schedule: Q01DX009 (ip)", "result": "10 of 10"}, {"measurement": "survivor count", "setting": "dose: 44.0 mg/kg/injection, schedule: Q04DX003 (ip)", "result": "10 of 10"}, {"measurement": "survivor count", "setting": "dose: 50.0 mg/kg/injection, schedule: Q01DX001 (ip)", "result": "10 of 10"}, {"measurement": "survivor count", "setting": "dose: 50.0 mg/kg/injection, schedule: Q01DX001 (oral)", "result": "10 of 10"}, {"measurement": "survivor count", "setting": "dose: 50.0 mg/kg/injection, schedule: Q04DX005 (ip)", "result": "9 of 10"}, {"measurement": "survivor count", "setting": "dose: 50.0 mg/kg/injection, schedule: Q04DX005 (iv)", "result": "10 of 10"}, {"measurement": "survivor count", "setting": "dose: 50.0 mg/kg/injection, schedule: Q08DX003 (ip)", "result": "10 of 10"}, {"measurement": "survivor count", "setting": "dose: 60.0 mg/kg/injection, schedule: Q01DX009 (ip)", "result": "10 of 10"}, {"measurement": "survivor count", "setting": "dose: 60.0 mg/kg/injection, schedule: Q01DX017 (ip)", "result": "10 of 10"}, {"measurement": "survivor count", "setting": "dose: 60.0 mg/kg/injection, schedule: Q01DX017 (oral)", "result": "10 of 10"}, {"measurement": "survivor count", "setting": "dose: 60.0 mg/kg/injection, schedule: Q01DX017 (sc)", "result": "10 of 10"}, {"measurement": "survivor count", "setting": "dose: 60.0 mg/kg/injection, schedule: Q03HX008 (ip)", "result": "10 of 10"}, {"measurement": "survivor count", "setting": "dose: 60.0 mg/kg/injection, schedule: Q08DX024 (ip)", "result": "10 of 10"}, {"measurement": "survivor count", "setting": "dose: 67.0 mg/kg/injection, schedule: Q01DX009 (ip)", "result": "10 of 10"}, {"measurement": "survivor count", "setting": "dose: 67.0 mg/kg/injection, schedule: Q04DX003 (ip)", "result": "10 of 10"}, {"measurement": "survivor count", "setting": "dose: 100.0 mg/kg/injection, schedule: Q01DX001 (ip)", "result": "10 of 10"}, {"measurement": "survivor count", "setting": "dose: 100.0 mg/kg/injection, schedule: Q01DX001 (oral)", "result": "10 of 10"}, {"measurement": "survivor count", "setting": "dose: 100.0 mg/kg/injection, schedule: Q01DX009 (ip)", "result": "10 of 10"}, {"measurement": "survivor count", "setting": "dose: 100.0 mg/kg/injection, schedule: Q04DX003 (ip)", "result": "10 of 10"}, {"measurement": "survivor count", "setting": "dose: 100.0 mg/kg/injection, schedule: Q04DX005 (ip)", "result": "10 of 10"}, {"measurement": "survivor count", "setting": "dose: 100.0 mg/kg/injection, schedule: Q04DX005 (iv)", "result": "10 of 10"}, {"measurement": "survivor count", "setting": "dose: 100.0 mg/kg/injection, schedule: Q08DX003 (ip)", "result": "10 of 10"}, {"measurement": "survivor count", "setting": "dose: 120.0 mg/kg/injection, schedule: Q01DX009 (ip)", "result": "10 of 10"}, {"measurement": "survivor count", "setting": "dose: 120.0 mg/kg/injection, schedule: Q01DX017 (ip)", "result": "10 of 10"}, {"measurement": "survivor count", "setting": "dose: 120.0 mg/kg/injection, schedule: Q01DX017 (oral)", "result": "10 of 10"}, {"measurement": "survivor count", "setting": "dose: 120.0 mg/kg/injection, schedule: Q01DX017 (sc)", "result": "10 of 10"}, {"measurement": "survivor count", "setting": "dose: 150.0 mg/kg/injection, schedule: Q04DX003 (ip)", "result": "10 of 10"}, {"measurement": "survivor count", "setting": "dose: 200.0 mg/kg/injection, schedule: Q01DX001 (ip)", "result": "10 of 10"}, {"measurement": "survivor count", "setting": "dose: 200.0 mg/kg/injection, schedule: Q01DX001 (oral)", "result": "10 of 10"}, {"measurement": "survivor count", "setting": "dose: 200.0 mg/kg/injection, schedule: Q04DX005 (ip)", "result": "10 of 10"}, {"measurement": "survivor count", "setting": "dose: 200.0 mg/kg/injection, schedule: Q08DX003 (ip)", "result": "9 of 10"}, {"measurement": "survivor count", "setting": "dose: 240.0 mg/kg/injection, schedule: Q01DX017 (oral)", "result": "10 of 10"}, {"measurement": "survivor count", "setting": "dose: 400.0 mg/kg/injection, schedule: Q01DX001 (ip)", "result": "2 of 10"}, {"measurement": "survivor count", "setting": "dose: 400.0 mg/kg/injection, schedule: Q01DX001 (oral)", "result": "10 of 10"}, {"measurement": "survivor count", "setting": "dose: 400.0 mg/kg/injection, schedule: Q08DX003 (ip)", "result": "2 of 10"}]}
